Test results as given in patent US9738613B2, “Substituted 1,2,3-triazoles as antitumor agents” (National Central University, priority 2015, dated 2017).
Some entries share one result that the patent states for a list of compounds.

Test system: PC-3 cells
Test: Sulforhodamine B (SRB) growth inhibition assay, PC-3 cells
Type: cell-based, Human
Conditions: 48 hours, bound stated, read-out: IC50 in PC-3 cells (text summary of Table 1)
Protocol: Human hormone-refractory prostate cancer cell lines PC-3 and DU-145 were from American Type Culture Collection (Rockville, MD). Cells were cultured in RPMI 1640 medium with 10% FBS (v/v) and penicillin (100 U/ml)/streptomycin (100 μg/ml). Cultures were maintained in a humidified incubator at 37° C. in 5% CO2/95% air.
Cells were seeded in 96-well plates in medium with 5% FBS. After 24 hours, cells were fixed with 10% TCA to represent cell population at the time of drug addition (T0). After additional incubation of DMSO or the compound for 48 hours (PC-3 cells) or 72 hours (DU145 cells), cells were fixed with 10% TCA and SRB at 0.4% (w/v) in 1% acetic acid was added to stain cells. Unbound SRB was washed out by 1% acetic acid and SRB bound cells were solubilized with 10 mM Trizma base. The absorbance was read at a wavelength of 515 nm. Using the following absorbance measurements, such as time zero (T0), control growth (C), and cell growth in the presence of the compound (Tx), the percentage growth was calculated at each of the compound concentrations levels. Percentage growth inhibition was calculated as: [1−(Tx−T0)/(C−T0)]×100%. Growth inhibition of 50% (IC50) is determined at the compound concentration which results in 50% reduction of total protein increase in control cells during the compound incubation. Data are expressed as mean±SEM of three to five determinations.

Substance: 2-Amino-2-(4-(1-tetradecyl-1H-1,2,3-triazol-4-yl)butyl)propane-1,3-diol hydrochloride [Compound 10]
- IC50: < 10 µM
